PubChem BioAssay AID1259254 | NCATS, 2017

Aim: 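Gene knock-downs that lead to re-replication, shown by excess G2 DNA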 (primary screen)
System: human HCT116 colorectal cancer cells
Knock-down reagent: single siRNA against human genes
Timing: 3 days
Measured: 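Imaged Hoechst DNA stain sorts each cell into a cycle phase by DNA amount; per plate, G2 fraction set to 0% for non-targeting and 100% for GMNN siRNA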
Direction: G2 robust z-score: higher = more G2 cells, more excess DNA replication
Hit rule: 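Active siRNAs have a G2 robust z of 5 or more median absolute deviations over the median, which in these data means about 38% or higher of GMNN control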
The deposit covers about 59,000 reagents; below is a part drawn at random. Of all reagents, about 1,550 (2.6%) got an active call. 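G2 share is only a proxy for re-replication; each gene was hit by three separate siRNAs, and active genes were retested.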 A number with no mark means an inactive call. Reagents against one gene are numbered here. Not all columns of the deposit are shown. The record does not give: the amount of reagent.

gene symbol | reagent no. | G2 robust z-score
ATAD2 (ATPase family AAA domain containing 2) | 1 | -0.779
ATAD2 (ATPase family AAA domain containing 2) | 2 | 0.762
ATAD2 (ATPase family AAA domain containing 2) | 3 | -0.613
COX7B2 (cytochrome c oxidase subunit 7B2) | 1 | 1.65
COX7B2 (cytochrome c oxidase subunit 7B2) | 2 | -0.1
COX7B2 (cytochrome c oxidase subunit 7B2) | 3 | 0.271
SPEM2 (SPEM family member 2) | 1 | 8.24 (active)
SPEM2 (SPEM family member 2) | 2 | -0.315
SPEM2 (SPEM family member 2) | 3 | -0.28
GABRP (gamma-aminobutyric acid type A receptor subunit pi) | 1 | 2.78
GABRP (gamma-aminobutyric acid type A receptor subunit pi) | 2 | -0.471
GABRP (gamma-aminobutyric acid type A receptor subunit pi) | 3 | 0.0254
SPO11 (SPO11 initiator of meiotic double strand breaks) | 1 | -0.789
SPO11 (SPO11 initiator of meiotic double strand breaks) | 2 | 4.46
SPO11 (SPO11 initiator of meiotic double strand breaks) | 3 | -0.897
HOXA3 (homeobox A3) | 1 | -0.758
HOXA3 (homeobox A3) | 2 | -0.421
HOXA3 (homeobox A3) | 3 | 0.0226
NLRP2 (NLR family pyrin domain containing 2) | 1 | -0.00595
NLRP2 (NLR family pyrin domain containing 2) | 2 | 2.26
NLRP2 (NLR family pyrin domain containing 2) | 3 | -0.633
WDR75 (WD repeat domain 75) | 1 | 0.0206
WDR75 (WD repeat domain 75) | 2 | 0.127
WDR75 (WD repeat domain 75) | 3 | 1.5
C18orf63 (chromosome 18 open reading frame 63) | 1 | 0.769
C18orf63 (chromosome 18 open reading frame 63) | 2 | 0.0462
C18orf63 (chromosome 18 open reading frame 63) | 3 | 1.8
JRK (Jrk helix-turn-helix protein) | 1 | 0.00114
JRK (Jrk helix-turn-helix protein) | 2 | -0.807
JRK (Jrk helix-turn-helix protein) | 3 | 1.1
RASSF2 (Ras association domain family member 2) | 1 | -1.03
RASSF2 (Ras association domain family member 2) | 2 | 0.354
RASSF2 (Ras association domain family member 2) | 3 | -0.137
C6orf58 (chromosome 6 open reading frame 58) | 1 | 1.86
C6orf58 (chromosome 6 open reading frame 58) | 2 | -0.166
C6orf58 (chromosome 6 open reading frame 58) | 3 | -0.61
ZMYND12 (zinc finger MYND-type containing 12) | 1 | 2.48
ZMYND12 (zinc finger MYND-type containing 12) | 2 | -0.418
ZMYND12 (zinc finger MYND-type containing 12) | 3 | 2.74
SAMD8 (sterile alpha motif domain containing 8) | 1 | 0.0349
SAMD8 (sterile alpha motif domain containing 8) | 2 | -0.00363
SAMD8 (sterile alpha motif domain containing 8) | 3 | -0.636
LEPROTL1 (leptin receptor overlapping transcript like 1) | 1 | 2.38
LEPROTL1 (leptin receptor overlapping transcript like 1) | 2 | 3.03
LEPROTL1 (leptin receptor overlapping transcript like 1) | 3 | 0.383
PKIG (cAMP-dependent protein kinase inhibitor gamma) | 1 | 0.221
PKIG (cAMP-dependent protein kinase inhibitor gamma) | 2 | -0.772
PKIG (cAMP-dependent protein kinase inhibitor gamma) | 3 | 2.15
ANKRD30BP3 (ANKRD30B pseudogene 3) | 1 | -0.345
ANKRD30BP3 (ANKRD30B pseudogene 3) | 2 | 0.335
ANKRD30BP3 (ANKRD30B pseudogene 3) | 3 | -0.508
SUMO1 (small ubiquitin like modifier 1) | 1 | -0.00635
SUMO1 (small ubiquitin like modifier 1) | 2 | 5.17 (active)
SUMO1 (small ubiquitin like modifier 1) | 3 | 1.79
THAP5 (THAP domain containing 5) | 1 | 1.19
THAP5 (THAP domain containing 5) | 2 | -0.903
THAP5 (THAP domain containing 5) | 3 | -0.0531
SLC38A4 | 1 | -1.31
SLC38A4 | 2 | -0.311
SLC38A4 | 3 | -0.416
RAC1 (Rac family small GTPase 1) | 1 | 8.56 (active)
RAC1 (Rac family small GTPase 1) | 2 | 2.25
RAC1 (Rac family small GTPase 1) | 3 | 1.63
PREB (prolactin regulatory element binding) | 1 | -1.19
PREB (prolactin regulatory element binding) | 2 | 0.534
PREB (prolactin regulatory element binding) | 3 | 0.36
PLAAT4 (phospholipase A and acyltransferase 4) | 1 | -0.689
PLAAT4 (phospholipase A and acyltransferase 4) | 2 | -0.0704
PLAAT4 (phospholipase A and acyltransferase 4) | 3 | 5.21 (active)

4 entries already listed, ordered by “G2 robust z-score”, low to high.
gene symbol | reagent no. | G2 robust z-score
SPEM2 (SPEM family member 2) | 2 | -0.315
COX7B2 (cytochrome c oxidase subunit 7B2) | 2 | -0.1
COX7B2 (cytochrome c oxidase subunit 7B2) | 3 | 0.271
SPEM2 (SPEM family member 2) | 1 | 8.24 (active)
